Measured values from article doi:10.1101/2020.08.14.246132.
No constants are given. Whether binding was seen depends on the method and setting. Binding seen in cells or lysates may run through a third protein. Tags and fused reporters may be left off the sequences shown.

Target: T1, FLAG-tagged full-length NLRP1 S1213A (autoproteolysis-deficient) (human), Q9C000
T1 chain: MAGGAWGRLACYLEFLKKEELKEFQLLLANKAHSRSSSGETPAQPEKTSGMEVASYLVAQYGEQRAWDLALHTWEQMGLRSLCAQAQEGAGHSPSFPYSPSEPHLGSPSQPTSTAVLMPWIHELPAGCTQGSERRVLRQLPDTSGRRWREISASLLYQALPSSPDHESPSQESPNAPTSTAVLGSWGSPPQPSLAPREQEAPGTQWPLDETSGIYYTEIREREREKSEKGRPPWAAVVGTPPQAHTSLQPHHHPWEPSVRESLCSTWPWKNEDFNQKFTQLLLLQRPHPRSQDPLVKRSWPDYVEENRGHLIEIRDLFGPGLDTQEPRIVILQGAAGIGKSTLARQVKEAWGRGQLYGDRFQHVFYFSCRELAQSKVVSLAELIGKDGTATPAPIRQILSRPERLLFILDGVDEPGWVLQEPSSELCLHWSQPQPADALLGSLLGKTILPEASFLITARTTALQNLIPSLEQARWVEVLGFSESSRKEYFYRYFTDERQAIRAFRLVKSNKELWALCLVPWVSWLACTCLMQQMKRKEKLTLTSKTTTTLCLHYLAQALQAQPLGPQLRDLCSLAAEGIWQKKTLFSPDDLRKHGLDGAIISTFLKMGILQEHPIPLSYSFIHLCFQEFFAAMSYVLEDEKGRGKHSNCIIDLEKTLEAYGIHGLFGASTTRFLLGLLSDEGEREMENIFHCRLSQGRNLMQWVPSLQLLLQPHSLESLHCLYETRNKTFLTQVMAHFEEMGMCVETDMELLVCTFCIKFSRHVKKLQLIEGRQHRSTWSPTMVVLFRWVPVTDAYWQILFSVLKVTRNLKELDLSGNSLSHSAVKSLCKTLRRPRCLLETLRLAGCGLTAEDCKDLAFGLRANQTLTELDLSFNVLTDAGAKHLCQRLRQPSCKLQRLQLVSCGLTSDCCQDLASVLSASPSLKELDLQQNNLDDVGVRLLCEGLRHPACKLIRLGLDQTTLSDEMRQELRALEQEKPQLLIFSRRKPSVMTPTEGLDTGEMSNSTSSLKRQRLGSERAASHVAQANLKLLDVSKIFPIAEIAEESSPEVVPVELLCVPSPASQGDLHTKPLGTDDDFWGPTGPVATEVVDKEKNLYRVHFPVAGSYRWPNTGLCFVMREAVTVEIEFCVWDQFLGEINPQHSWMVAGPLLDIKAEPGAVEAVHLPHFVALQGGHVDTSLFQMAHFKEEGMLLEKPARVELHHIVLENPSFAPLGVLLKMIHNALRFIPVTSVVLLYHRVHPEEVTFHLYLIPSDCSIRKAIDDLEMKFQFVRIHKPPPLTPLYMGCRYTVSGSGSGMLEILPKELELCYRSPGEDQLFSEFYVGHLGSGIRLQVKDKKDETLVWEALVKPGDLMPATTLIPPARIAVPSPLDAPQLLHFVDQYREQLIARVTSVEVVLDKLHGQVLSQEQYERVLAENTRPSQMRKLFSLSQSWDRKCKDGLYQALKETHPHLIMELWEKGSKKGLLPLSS
Experiment: co-IP
Details: remark: other sources report otherwise

binding: no binding
B1: DPP9, short isoform, N-terminal His tag (His-TEV-DPP9), wild type, for co-immunoprecipitation, Q86TI2-1 1-863 (enzyme)
chain: MATTGTPTADRGDAAATDDPAARFQVQKHSWDGLRSIIHGSRKYSGLIVNKAPHDFQFVQKTDESGPHSHRLYYLGMPYGSRENSLLYSEIPKKVRKEALLLLSWKQMLDHFQATPHHGVYSREEELLRERKRLGVFGITSYDFHSESGLFLFQASNSLFHCRDGGKNGFMVSPMKPLEIKTQCSGPRMDPKICPADPAFFSFINNSDLWVANIETGEERRLTFCHQGLSNVLDDPKSAGVATFVIQEEFDRFTGYWWCPTASWEGSEGLKTLRILYEEVDESEVEVIHVPSPALEERKTDSYRYPRTGSKNPKIALKLAEFQTDSQGKIVSTQEKELVQPFSSLFPKVEYIARAGWTRDGKYAWAMFLDRPQQWLQLVLLPPALFIPSTENEEQRLASARAVPRNVQPYVVYEEVTNVWINVHDIFYPFPQSEGEDELCFLRANECKTGFCHLYKVTAVLKSQGYDWSEPFSPGEDEFKCPIKEEIALTSGEWEVLARHGSKIWVNEETKLVYFQGTKDTPLEHHLYVVSYEAAGEIVRLTTPGFSHSCSMSQNFDMFVSHYSSVSTPPCVHVYKLSGPDDDPLHKQPRFWASMMEAASCPPDYVPPEIFHFHTRSDVRLYGMIYKPHALQPGKKHPTVLFVYGGPQVQLVNNSFKGIKYLRLNTLASLGYAVVVIDGRGSCQRGLRFEGALKNQMGQVEIEDQVEGLQFVAEKYGFIDLSRVAIHGWSYGGFLSLMGLIHKPQVFKVAIAGAPVTVWMAYDTGYTERYMDVPENNQHGYEAGSVALHVEKLPNEPNRLLILHGFLDENVHFFHTNFLVSQLIRAGKPYQLQIYPNERHSIRCPESGEHYEVTLLHFLQEYL
